Structures can show the parent of a compound that is named as a salt.
How the values were obtained:
[1] = Corrosion test of hydrochlorides on carbon steel test pieces; conditions: hydrochloride of the named base, 50% by mass in pure water, 20 hours at 50° C., argon deaeration
[2] = Corrosiveness test of hydrochlorides on mild steel test pieces; conditions: 50% by mass aqueous solution, 18 hours at 90° C., nitrogen deaeration
[3] = Distillation test (JIS K2275): chloride ion in the distillate of gas oil with magnesium chloride/base test solution; conditions: for Chloride ion concentration: magnesium chloride:base mole ratio 1:2, test solution 5% by mass in gas oil, distilled 0.5 hours at 100° C. to maximum 200° C., in distillate; for hydrogen chloride formation inhibiting effect or hydrogen chloride neutralizing effect: versus test solution 5 (no base) as blank
[4] = Quantity of ammonia or amines needed to reach a given boiler water pH in a test boiler; conditions: 170° C., 0.8 Mpa, pure feed water

With `COCCCN` [3-methoxypropylamine] the “Corrosion speed (mdd)” value [1] was 480 mdd.
For `N` [Ammonia], the “Corrosion speed (mdd)” value [1] was 256 mdd.
For `C[N+](C)(C)CCO.[Cl-]` [Choline hydrochloride (choline chloride), choline chloride], the “Corrosion speed (mdd)” value [2] was 32 mdd.
For `C[N+](C)(C)CCO.[OH-]` [Choline, (β-hydroxyethyl)trimethylammonium hydroxide], the “Chloride ion concentration” value [3] was 2.8 mg/L, the “hydrogen chloride formation inhibiting effect or hydrogen chloride neutralizing effect” value [3] was “equivalent to or greater than that of sodium hydroxide” and the “Corrosion speed (mdd)” value [1] was 32 mdd. For the same molecule, the “quantity added necessary to achieve boiler water pH, mass ratio with choline given as 1” value ([4]; boiler water pH (25° C.) 10.0) was 1.0, the “quantity added necessary to achieve boiler water pH, mass ratio with choline given as 1” value ([4]; boiler water pH (25° C.) 10.5) was 1.0 and the “quantity added necessary to achieve boiler water pH, mass ratio with choline given as 1” value ([4]; boiler water pH (25° C.) 11.0) was 1.0.
In the case of `NC1CCCCC1` [Cyclohexylamine], the “quantity added necessary to achieve boiler water pH, mass ratio with choline given as 1” value ([4]; boiler water pH (25° C.) 10.0) is reported as 20.3, the “quantity added necessary to achieve boiler water pH, mass ratio with choline given as 1” value ([4]; boiler water pH (25° C.) 10.5) is reported as 28.0 and the “quantity added necessary to achieve boiler water pH, mass ratio with choline given as 1” value ([4]; boiler water pH (25° C.) 11.0) is reported as 44.8.
In the case of `CN(C)CCO.Cl` [Dimethylethanolamine hydrochloride], the “Corrosion speed (mdd)” value [2] is reported as 288 mdd.
With `NCCO` [Monoethanolamine hydrochloride] the “Corrosion speed (mdd)” value [2] was 132 mdd.
With `NCCO` [Monoethanolamine] the “Chloride ion concentration” value [3] was 140 mg/L, the “hydrogen chloride formation inhibiting effect or hydrogen chloride neutralizing effect” value [3] was “neither monoethanolamine nor dimethylethanolamine exhibited any hydrogen chloride formation inhibiting effect or hydrogen chloride neutralizing effect” and the “Corrosion speed (mdd)” value [1] was 132 mdd.
In the case of `C1COCCN1` [Morpholine], the “quantity added necessary to achieve boiler water pH, mass ratio with choline given as 1” value ([4]; boiler water pH (25° C.) 10.0) is reported as 53.0, the “quantity added necessary to achieve boiler water pH, mass ratio with choline given as 1” value ([4]; boiler water pH (25° C.) 10.5) is reported as 159.1 and the “quantity added necessary to achieve boiler water pH, mass ratio with choline given as 1” value ([4]; boiler water pH (25° C.) 11.0) is reported as 424.2.
In the case of `[Na+].[OH-]` [Sodium hydroxide], the “Chloride ion concentration” value [3] is reported as 5.4 mg/L.
With Dimethylethanolamine the “Chloride ion concentration” value [3] was 140 mg/L and the “hydrogen chloride formation inhibiting effect or hydrogen chloride neutralizing effect” value [3] was “neither monoethanolamine nor dimethylethanolamine exhibited any hydrogen chloride formation inhibiting effect or hydrogen chloride neutralizing effect”.
